# Test results from patent US20180353539A1, “METAL COMPLEXES AS PHARMACEUTICALS FOR TREATMENT AND PREVENTION OF CANCER AND INFLAMMATORY DISEASES” (UNIVERSITY OF SOUTHERN CALIFORNIA, priority 2017, published 2018).
# Test system: fresh muscle tissue
# Experiment: Treated muscle tissue implanted subcutaneously into rats
# Format: in vivo
compound,measurement,setting,value
Nc1ccn([C@@H]2O[C@H](CO)[C@@H](O)C2(F)F)c(=O)n1 [Gemcitabine],inflammation of implanted tissue,"day 3, tissue treated ex vivo 24 hours (Gemcitabine 100 microM)",severe inflammation
same,inflammation of implanted tissue,day 7,severe inflammation
same,state and capsulation of implanted tissue,day 7,fibrous capsules formed around the tissue
